Data as given in patent US20160280799A1.
These are yes or no findings as the source states them, for the method shown. Some results given as binding are weak or reduced against the parent protein; the word gives no strength.

Chains of the proteins cited; added tags and fusions are not shown. Lines headed by an entry give the natural chain unless they say otherwise; changes in a name come on top. A line that says so, or that is headed by a name, gives the form on record, which may keep a tag or linker.
human IgE (P01854, form named): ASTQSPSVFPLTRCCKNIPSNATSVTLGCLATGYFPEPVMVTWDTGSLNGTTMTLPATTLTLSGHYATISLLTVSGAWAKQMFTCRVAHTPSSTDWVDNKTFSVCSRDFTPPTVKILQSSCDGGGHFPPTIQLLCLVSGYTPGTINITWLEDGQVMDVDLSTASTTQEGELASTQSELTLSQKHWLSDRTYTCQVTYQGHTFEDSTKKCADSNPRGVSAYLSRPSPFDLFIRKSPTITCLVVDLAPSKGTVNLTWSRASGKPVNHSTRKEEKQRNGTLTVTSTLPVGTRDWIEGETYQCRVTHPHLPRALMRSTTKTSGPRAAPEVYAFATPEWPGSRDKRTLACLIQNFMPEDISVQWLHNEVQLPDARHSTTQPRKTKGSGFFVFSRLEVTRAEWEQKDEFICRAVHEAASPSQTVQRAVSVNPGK

B1: VHH#2C1 (VHH)
VHH: QVQLQESGGGLVQPGDSLRLSCVVSGRTLSYSSLAWFRQAPGKERDFVAALSLTTYYADSVKGRFTISRDNAKNTVYLQMNSLKPDDTADYFCATARTRTDYAPLLSAASTYDAWGQGTQVTVSL
B2: VHH#4C5 (VHH)
VHH: QVQLQESGGGLVQAGGSLRLSCAASGRTLSSYTMAWFRQAPGKEREFVASISSSGISTYYADSVKGRFTISRDIAKNTVYLQMNSLKPEDTAVYYCAAKYRYYSTLYTKSGEYDYWGQGTQVTVSS
B3: VHH#4G12 (VHH)
VHH: QVQLQESGGGVVQPGGSLRLSCSVSGTSISNRVMAWFRQAPGKQRDFVAYITSAVNTDYADFVKGRFTISRDNAQNMVHLQMNSLKPEDTAVYYCNVLKDTWFRTPYDYYWGQGTQVTVSS
B4: VHH#2B6 (VHH)
VHH: QVQLQDSGGGLVQAGGSLRLSCAASGVTFSSYAMGWFRQAPGKEREFVASITWIGGGTYYADSVKGRFTISRDHAGNTVYLQMNTLKPDDTAVYYCALDRRSSTYYLMKGEYDYRGRGTQVTVSS
B5: VHH#2H11 (VHH)
VHH: QVQLQESGGGLVQAGGSLRLSCAASGVTFSSYAMGWFRQAPGKEREFVASITWTGTGTYYADSVKGRFTISRDHAGTTVYLQMNSLKPEDTAVYYCAVDRRSSTYYLMKGEYDYRGRGTQVTVSS
B6: VHH#2G4 (VHH)
VHH: QVQLQDSGGGLVQAGDSLRLSCAASGLTFLEHVMAWFRQTPGKEREFVGAIDWSGRRITYTDSVKGRFTISRDNAKNTVYLQMNTLKPEDTAVYYCAADRTYSYSSTGYYYWGQGTQVTVSS
B7: VHH#2D12 (VHH)
VHH: QVQLQESGGGLVQAGDSLRLSCAASGLTFLEHVMAWFRQTPGKEREFVGAIDWSGRRITYTDSVKGRFTISRDNAKNTVYLQMNTLKPEDTAVYYCAADRTYSYSSTGYYYWGQGTQVTVSS
B8: VHH#2C3 (VHH)
VHH: QVQLQDSGGGLVQPGGSLRLSCRASGRIFRINAMGWYRQAPGKQRELVATITSTGSTNFADSVKGRFTIYRDGAKRTVDLRLNSLKPEDTAVYFCNADVREYDLGPWRQYWGQGTQVTVSS
B9: VHH#2H3 (VHH)
VHH: QVQLQESGGGLVQAGGSLRLSCAASGRSSRYYAMGWFRQGPGKEREFVAAVNWNGDSTYYADSVKGRFTISRGNAENTAYLQMNSLVPEDTAVYYCAMRMNAGLGYSAASYQYWGQGTQVTVSL
B10: VHH#2D4 (VHH)
VHH: QVQLQESGGGLVQAGGSLRLSCAASGLTFSTYAMGWFRQAPGKEREFVAAVSYSGSYYADSVKGRFTISRDNAKNTVYLQMASLKPEDTAVYYCAARNRGYSTYAGVYDYWGQGTQVTVSS
B11: VHH#4A2 (VHH)
VHH: QVQLQDSGGGLVQAGGSLRLSCEASGRTISSYAMAWFRQAPGKEREFVASISSSGVSKHYADSVKGRFTISNDKVKNTVYLQMNSLKPEDTAVYFCAAKYRYYSSYYTKSGDYDYWGQGTQVTVSS

molecular target: human IgE (human) (UniProt P01854); assay: ELISA, solid phase coated human IgE

binding, binds:
B1, B2, B3, B4, B5, B6, B7, B8, B9, B10, B11
